Experiment [1] concerns MCF7. In words: Anti tumor activity on human breast cancer cell line MDR-positive MCF-7 ADRr after 72 hours of treatment. The class given is functional, cell-based. The note with it: MCF7, 72 h.
Experiment [2] deals with MDA-MB-231. In words: cells. The class given is functional, cell-based. The note with it: Homo sapiens, MDA-MB-231, 72 h.

SMILES strings stand for the structures.

Usually IC50 stands for the midpoint of a concentration-inhibition curve. A low value points to inhibition by little substance. With `COc1cc2c(c(OC)c1OC)-c1ccc(SC)c(=O)cc1[C@@H](N)CC2`, the figures for the 50% inhibitory concentration (IC50) in experiment [1] and in experiment [2] were 4200 nM and 2.2 nM, respectively.
